Reference: the supplement of paper PMC10849652
Some of the results follow.

Chains of the proteins cited; added tags and fusions are not shown. Lines headed by an entry give the natural chain unless they say otherwise; changes in a name come on top.
UniProt Q99426: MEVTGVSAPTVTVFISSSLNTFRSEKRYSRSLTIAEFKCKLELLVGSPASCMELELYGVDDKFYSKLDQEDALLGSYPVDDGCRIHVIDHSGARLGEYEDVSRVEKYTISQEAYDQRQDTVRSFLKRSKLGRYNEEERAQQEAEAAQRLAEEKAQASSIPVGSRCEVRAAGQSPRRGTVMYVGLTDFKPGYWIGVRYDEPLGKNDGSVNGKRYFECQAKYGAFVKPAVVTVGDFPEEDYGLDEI
UniProt P37802: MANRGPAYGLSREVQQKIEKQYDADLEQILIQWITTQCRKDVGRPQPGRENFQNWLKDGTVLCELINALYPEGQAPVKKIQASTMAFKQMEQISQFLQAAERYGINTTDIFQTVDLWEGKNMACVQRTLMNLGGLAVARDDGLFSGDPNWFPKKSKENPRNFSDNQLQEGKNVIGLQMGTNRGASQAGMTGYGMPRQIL
UniProt Q17R31: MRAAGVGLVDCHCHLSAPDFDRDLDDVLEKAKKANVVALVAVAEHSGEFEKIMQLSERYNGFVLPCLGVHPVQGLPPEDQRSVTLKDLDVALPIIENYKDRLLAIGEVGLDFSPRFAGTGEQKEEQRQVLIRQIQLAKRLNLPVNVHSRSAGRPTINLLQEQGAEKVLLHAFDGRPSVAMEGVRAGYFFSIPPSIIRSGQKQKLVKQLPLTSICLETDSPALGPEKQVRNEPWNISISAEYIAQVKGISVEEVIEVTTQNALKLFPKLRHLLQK
UniProt Q8NFU7: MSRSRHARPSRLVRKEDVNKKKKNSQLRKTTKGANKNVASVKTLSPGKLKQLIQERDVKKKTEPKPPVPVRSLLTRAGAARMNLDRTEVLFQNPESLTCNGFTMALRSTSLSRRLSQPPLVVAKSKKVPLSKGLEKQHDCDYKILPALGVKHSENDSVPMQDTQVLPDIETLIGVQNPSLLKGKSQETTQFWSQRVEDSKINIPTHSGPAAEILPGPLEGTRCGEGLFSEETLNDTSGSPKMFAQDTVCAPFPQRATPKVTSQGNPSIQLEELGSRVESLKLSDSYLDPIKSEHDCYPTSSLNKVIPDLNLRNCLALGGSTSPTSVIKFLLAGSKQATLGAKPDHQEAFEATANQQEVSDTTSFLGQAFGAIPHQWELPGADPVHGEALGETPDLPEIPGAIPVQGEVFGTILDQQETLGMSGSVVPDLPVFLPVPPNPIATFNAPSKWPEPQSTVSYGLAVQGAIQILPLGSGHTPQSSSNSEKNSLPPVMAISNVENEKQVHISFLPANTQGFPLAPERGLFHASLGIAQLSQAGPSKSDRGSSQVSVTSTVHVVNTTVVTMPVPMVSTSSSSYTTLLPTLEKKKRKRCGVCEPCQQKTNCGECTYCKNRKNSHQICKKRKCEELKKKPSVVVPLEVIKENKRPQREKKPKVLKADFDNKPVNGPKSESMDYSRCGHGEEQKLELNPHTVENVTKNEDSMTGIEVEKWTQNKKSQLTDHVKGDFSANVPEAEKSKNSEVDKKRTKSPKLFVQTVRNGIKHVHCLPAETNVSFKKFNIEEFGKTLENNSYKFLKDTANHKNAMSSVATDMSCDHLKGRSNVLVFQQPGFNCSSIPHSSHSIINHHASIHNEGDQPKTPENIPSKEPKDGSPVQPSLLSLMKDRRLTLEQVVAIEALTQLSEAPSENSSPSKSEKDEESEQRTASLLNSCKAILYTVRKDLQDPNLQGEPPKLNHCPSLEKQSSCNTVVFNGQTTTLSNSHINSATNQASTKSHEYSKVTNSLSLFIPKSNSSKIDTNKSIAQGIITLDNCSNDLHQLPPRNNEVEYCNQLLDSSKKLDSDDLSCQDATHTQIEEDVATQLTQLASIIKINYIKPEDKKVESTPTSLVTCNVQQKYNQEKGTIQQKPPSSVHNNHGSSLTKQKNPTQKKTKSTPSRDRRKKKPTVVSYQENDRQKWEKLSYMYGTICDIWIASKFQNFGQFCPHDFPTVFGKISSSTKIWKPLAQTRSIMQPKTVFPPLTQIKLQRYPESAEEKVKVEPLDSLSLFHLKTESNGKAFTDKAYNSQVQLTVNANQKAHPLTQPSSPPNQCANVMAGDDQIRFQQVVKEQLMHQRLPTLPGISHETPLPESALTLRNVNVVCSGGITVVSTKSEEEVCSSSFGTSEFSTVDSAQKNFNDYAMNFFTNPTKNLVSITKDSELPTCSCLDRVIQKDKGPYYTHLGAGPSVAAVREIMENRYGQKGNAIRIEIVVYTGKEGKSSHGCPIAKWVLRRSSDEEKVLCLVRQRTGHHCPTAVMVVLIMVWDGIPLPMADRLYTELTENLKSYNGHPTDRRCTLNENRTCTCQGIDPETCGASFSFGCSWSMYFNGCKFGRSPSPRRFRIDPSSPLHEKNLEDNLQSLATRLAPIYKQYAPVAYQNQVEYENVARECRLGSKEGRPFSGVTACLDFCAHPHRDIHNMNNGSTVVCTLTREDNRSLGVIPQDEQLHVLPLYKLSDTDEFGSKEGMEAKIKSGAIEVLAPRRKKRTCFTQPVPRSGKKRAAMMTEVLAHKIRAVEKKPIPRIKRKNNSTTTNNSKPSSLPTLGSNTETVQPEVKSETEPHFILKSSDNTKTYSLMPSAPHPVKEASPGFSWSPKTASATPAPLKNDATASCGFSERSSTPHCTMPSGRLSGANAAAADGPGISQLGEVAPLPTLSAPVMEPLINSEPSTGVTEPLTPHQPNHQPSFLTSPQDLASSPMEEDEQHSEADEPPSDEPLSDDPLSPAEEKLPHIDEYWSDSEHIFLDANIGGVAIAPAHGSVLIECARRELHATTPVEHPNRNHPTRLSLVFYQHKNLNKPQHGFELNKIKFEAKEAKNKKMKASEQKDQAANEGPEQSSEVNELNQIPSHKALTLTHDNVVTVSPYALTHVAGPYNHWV
UniProt Q9NZ01: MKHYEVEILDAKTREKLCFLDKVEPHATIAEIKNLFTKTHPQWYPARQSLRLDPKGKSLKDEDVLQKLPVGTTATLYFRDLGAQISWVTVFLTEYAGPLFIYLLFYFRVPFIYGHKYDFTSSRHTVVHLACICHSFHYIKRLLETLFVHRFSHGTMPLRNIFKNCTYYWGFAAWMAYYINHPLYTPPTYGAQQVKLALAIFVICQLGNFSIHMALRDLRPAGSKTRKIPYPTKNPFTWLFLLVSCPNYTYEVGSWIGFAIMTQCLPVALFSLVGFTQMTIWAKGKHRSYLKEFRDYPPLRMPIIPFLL
UniProt P19532: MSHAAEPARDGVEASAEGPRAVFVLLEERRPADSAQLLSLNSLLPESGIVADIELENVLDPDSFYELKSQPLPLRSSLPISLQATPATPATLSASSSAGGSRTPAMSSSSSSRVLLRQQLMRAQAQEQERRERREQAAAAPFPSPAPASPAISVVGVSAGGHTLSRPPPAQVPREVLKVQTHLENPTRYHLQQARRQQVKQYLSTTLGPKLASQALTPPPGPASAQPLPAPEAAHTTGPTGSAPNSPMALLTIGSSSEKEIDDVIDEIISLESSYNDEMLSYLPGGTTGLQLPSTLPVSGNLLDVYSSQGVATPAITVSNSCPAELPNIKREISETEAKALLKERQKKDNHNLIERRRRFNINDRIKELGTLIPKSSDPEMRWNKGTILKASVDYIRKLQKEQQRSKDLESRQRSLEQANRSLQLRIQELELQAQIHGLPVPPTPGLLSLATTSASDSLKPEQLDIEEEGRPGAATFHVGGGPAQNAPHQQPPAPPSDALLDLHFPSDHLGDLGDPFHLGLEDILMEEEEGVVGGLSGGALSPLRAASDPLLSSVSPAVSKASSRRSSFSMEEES
UniProt Q7Z7C8, whole entry, looked up: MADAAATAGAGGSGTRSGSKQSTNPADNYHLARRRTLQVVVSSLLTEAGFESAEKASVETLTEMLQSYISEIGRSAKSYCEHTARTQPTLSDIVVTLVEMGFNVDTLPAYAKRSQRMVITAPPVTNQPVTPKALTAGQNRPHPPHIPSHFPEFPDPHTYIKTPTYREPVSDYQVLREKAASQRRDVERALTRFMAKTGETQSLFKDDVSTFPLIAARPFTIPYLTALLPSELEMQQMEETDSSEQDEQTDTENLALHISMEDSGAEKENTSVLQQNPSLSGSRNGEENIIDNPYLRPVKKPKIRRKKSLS
UniProt O60343: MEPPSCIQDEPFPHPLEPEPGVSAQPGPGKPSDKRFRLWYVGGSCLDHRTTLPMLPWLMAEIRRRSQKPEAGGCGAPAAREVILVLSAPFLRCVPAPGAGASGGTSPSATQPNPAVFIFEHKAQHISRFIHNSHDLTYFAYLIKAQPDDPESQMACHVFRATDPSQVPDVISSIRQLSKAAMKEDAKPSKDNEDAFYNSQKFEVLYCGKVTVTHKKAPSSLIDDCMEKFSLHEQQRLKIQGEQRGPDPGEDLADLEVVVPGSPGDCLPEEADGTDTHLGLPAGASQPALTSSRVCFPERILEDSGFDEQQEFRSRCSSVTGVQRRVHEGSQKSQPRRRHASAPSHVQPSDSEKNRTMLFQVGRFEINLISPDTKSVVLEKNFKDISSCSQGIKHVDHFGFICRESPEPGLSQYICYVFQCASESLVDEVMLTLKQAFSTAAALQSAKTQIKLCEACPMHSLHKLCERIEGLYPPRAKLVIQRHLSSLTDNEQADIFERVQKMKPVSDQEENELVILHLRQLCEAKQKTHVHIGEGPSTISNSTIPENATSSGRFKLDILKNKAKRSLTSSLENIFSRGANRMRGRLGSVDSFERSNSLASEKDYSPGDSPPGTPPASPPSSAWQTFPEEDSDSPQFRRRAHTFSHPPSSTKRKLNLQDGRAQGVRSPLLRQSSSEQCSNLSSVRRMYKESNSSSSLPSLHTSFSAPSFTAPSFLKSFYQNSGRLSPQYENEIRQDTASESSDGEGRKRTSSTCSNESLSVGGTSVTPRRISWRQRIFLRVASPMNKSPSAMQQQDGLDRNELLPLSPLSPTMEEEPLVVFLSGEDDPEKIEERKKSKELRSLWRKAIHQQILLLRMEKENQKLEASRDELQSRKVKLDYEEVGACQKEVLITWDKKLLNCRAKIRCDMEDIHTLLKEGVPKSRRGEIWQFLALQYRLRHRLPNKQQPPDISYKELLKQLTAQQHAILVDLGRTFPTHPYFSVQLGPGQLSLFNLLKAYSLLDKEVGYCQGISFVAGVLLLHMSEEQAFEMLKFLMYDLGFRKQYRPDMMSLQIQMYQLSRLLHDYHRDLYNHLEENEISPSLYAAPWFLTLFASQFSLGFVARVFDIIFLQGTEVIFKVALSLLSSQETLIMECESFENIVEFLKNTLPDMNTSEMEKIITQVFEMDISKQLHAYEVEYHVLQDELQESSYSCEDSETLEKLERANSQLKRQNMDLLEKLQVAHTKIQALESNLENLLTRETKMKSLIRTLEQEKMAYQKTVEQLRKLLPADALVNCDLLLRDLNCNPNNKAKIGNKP
UniProt Q9BYX2: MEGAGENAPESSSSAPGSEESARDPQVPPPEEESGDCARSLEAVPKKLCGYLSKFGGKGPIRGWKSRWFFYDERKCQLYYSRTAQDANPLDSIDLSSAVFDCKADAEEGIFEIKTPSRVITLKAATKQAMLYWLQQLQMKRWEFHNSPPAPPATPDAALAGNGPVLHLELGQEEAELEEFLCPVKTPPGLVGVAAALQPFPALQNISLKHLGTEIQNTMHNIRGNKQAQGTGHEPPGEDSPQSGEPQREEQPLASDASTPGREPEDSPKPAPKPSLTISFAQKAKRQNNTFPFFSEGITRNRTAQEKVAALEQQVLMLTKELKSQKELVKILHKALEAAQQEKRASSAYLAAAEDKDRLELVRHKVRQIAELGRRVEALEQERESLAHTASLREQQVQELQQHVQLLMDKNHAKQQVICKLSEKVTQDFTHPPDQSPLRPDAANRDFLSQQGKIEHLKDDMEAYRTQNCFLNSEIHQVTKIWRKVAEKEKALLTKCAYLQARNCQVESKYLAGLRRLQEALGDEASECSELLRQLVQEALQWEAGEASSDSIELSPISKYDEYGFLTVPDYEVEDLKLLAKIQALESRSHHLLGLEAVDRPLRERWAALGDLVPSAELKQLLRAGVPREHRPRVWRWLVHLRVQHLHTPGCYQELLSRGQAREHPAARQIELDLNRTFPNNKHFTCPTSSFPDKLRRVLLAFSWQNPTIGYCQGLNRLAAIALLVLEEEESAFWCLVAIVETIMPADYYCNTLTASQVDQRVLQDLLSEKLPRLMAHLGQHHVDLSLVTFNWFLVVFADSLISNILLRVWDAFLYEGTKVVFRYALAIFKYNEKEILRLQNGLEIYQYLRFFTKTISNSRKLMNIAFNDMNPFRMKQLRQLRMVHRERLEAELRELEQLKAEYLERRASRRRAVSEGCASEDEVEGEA
UniProt Q6ICL3: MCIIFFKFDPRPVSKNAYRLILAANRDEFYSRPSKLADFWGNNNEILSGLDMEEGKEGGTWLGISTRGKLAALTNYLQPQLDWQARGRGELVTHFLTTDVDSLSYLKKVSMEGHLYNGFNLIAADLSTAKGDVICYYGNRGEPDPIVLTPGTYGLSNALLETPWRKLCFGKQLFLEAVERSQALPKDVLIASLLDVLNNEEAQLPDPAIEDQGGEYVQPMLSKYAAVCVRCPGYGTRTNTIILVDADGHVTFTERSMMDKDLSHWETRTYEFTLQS

Experiments:
Assay in all cases: log2 fold change, soluble protein after heating vs DMSO (PISA); higher = thermal stabilisation; K562 lysate, 10 uM; active = over 0.2 and 3.5 SD of the protein, either way, in both replicates (recomputed)
[1] = compound: C=CC(=O)N1CCC[C@@H](n2nc(-c3ccc(Oc4ccccc4)cc3)c3c(N)ncnc32)C1 [ibrutinib]
Method in brief: (§1)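 K562 pellets were dounce-homogenised in PBS pH 7.4 with 1 mM MgCl2, and the crude extract at 1 mg/mL protein was treated with 10 μM compound for 30 min. Aliquots were heated for 3 min across 48°C-58°C, pooled, and brought to 0.5% NP-40 at 4°C; soluble protein was the supernatant after 21,000xg for 90 min. Soluble protein was quantified by TMTpro 16plex LC-MS/MS with channel sums equalised, and reported as log2 fold change in thermal stability against DMSO controls, with values from duplicates.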

[2] = compound: CC(=O)c1cnc2ccc(-c3cc(Cl)c(O)c(Cl)c3)nc2c1N[C@H]1CC[C@H](CN(C)C)CC1
Method in brief: as §1

[3] = compound: CC(C)(C)Cn1c(N)nc2ccc(-c3[nH]c(C(C)(C)C)nc3-c3ccc(F)cc3)nc21 [ralimetinib]
Method in brief: as §1

[4] = compound: CC(C)(O)CC(=O)NCCn1ccc2ncnc(Nc3ccc(Oc4cccc(C(F)(F)F)c4)c(Cl)c3)c21
Method in brief: as §1

[5] = compound: CC(C)C1=C2N=C(C=C(N2N=C1)NCC3=CC=CC=C3)NCCCCCCN
Method in brief: as §1

[6] = compound: CC1=C(C(CC(=O)N1)C2=CC=C(C=C2)C(F)(F)F)C(=O)NC3=C(C=C4C(=C3)C=NN4)F
Method in brief: as §1

[7] = compound: CC1=C(C2=C(C=C1)C(=O)C3=CC=CC=C3N2CCCN)C
Method in brief: as §1

[8] = compound: CC1=C(C=C(C=C1)NC(=O)C2=CC(=CC=C2)C(C)(C)C#N)NC3=CC4=C(C=C3)N=CN(C4=O)C
Method in brief: as §1

[9] = compound: CC1=C(C=C(C=C1)NC(=O)C2=CC(=CC=C2)N(C)C)NC(=O)C3=CC=C(C=C3)O
Method in brief: as §1

[10] = compound: CC1=CC=C(C=C1)SC2=C3C=C(SC3=CN=C2)C(=O)N
Method in brief: as §1

Measured: log2 fold change

TESC (UniProt Q96BS2)
inactive: [1] 0.065 | [2] -0.029 | [3] 0.005 | [4] 0.056 | [5] -0.055 | [6] 0.043 | [7] 0.015 | [8] 0 | [9] -0.013 | [10] -0.077

TBC1D10B (UniProt Q4KMP7)
inactive: [1] -0.011 | [2] -0.025 | [3] 0.004 | [4] -0.014 | [5] -0.043 | [6] 0.003 | [7] 0.011 | [8] -0.001 | [9] 0.029 | [10] -0.051

TBCD (UniProt Q9BTW9)
inactive: [1] 0.01 | [2] 0.014 | [3] 0.014 | [4] -0.025 | [5] 0.015 | [6] -0.018 | [7] 0.017 | [8] -0.014 | [9] -0.018 | [10] 0.008

TBCB (UniProt Q99426)
inactive: [1] -0.052 | [2] 0.019 | [3] 0.017 | [4] 0.003 | [5] -0.01 | [6] 0.008 | [7] -0.002 | [8] 0.047 | [9] -0.008 | [10] -0.001

TFB2M (UniProt Q9H5Q4)
inactive: [1] -0.049 | [2] 0.014 | [3] 0.032 | [4] -0.013 | [5] -0.038 | [6] 0.034 | [7] 0.048 | [8] 0.018 | [9] 0.008 | [10] 0.011

TAGLN2 isoform 2 (UniProt P37802)
inactive: [1] 0.048 | [2] 0 | [3] -0.011 | [4] -0.012 | [5] -0.003 | [6] -0.027 | [7] 0 | [8] 0.009 | [9] 0.003 | [10] -0.025

TFG (UniProt Q92734)
inactive: [1] 0.001 | [2] -0.002 | [3] -0.029 | [4] -0.008 | [5] -0.004 | [6] -0.021 | [7] 0.002 | [8] 0.003 | [9] -0.018 | [10] 0.008

TATDN3 isoform 3 (UniProt Q17R31)
inactive: [1] 0.027 | [2] -0.005 | [3] 0.019 | [4] -0.095 | [5] 0.006 | [6] -0.023 | [7] -0.046 | [8] -0.017 | [9] -0.015 | [10] -0.011

TES (UniProt Q9UGI8)
inactive: [1] -0.016 | [2] -0.01 | [3] -0.02 | [4] -0.016 | [5] -0.008 | [6] -0.04 | [7] -0.026 | [8] 0.058 | [9] -0.006 | [10] -0.008

TFIP11 (UniProt Q9UBB9)
inactive: [1] 0.059 | [2] 0.001 | [3] 0.023 | [4] 0.008 | [5] -0.022 | [6] 0 | [7] -0.034 | [8] 0.016 | [9] 0.031 | [10] -0.003

TBL3 (UniProt Q12788)
inactive: [1] -0.006 | [2] -0.016 | [3] 0.027 | [4] 0.001 | [5] 0.026 | [6] 0.013 | [7] -0.017 | [8] 0.027 | [9] 0.046 | [10] 0.008

TEX2 isoform 2 (UniProt Q8IWB9)
inactive: [1] 0.098 | [2] -0.011 | [3] 0.131 | [4] -0.042 | [5] 0.119 | [6] 0.071 | [7] -0.057 | [8] -0.001 | [9] -0.05 | [10] -0.071

TARBP1 (UniProt Q13395)
inactive: [1] -0.021 | [2] 0.036 | [3] 0.162 | [4] 0.03 | [5] -0.051 | [6] -0.027 | [7] -0.077 | [8] 0.002 | [9] 0.035 | [10] -0.036

TBC1D5 isoform 2 (UniProt Q92609)
inactive: [1] -0.023 | [2] -0.01 | [3] 0.019 | [4] 0.015 | [5] -0.026 | [6] 0.012 | [7] 0.004 | [8] 0.035 | [9] 0.004 | [10] -0.027

TCF12 isoform 3 (UniProt Q99081)
inactive: [1] 0.059 | [2] -0.029 | [3] -0.022 | [4] -0.054 | [5] 0.002 | [6] -0.008 | [7] 0.064 | [8] -0.008 | [9] 0.011 | [10] 0.109

TCIRG1 (UniProt Q13488)
inactive: [1] -0.02 | [2] -0.038 | [3] 0.012 | [4] -0.152 | [5] 0.024 | [6] 0.01 | [7] 0.041 | [8] -0.051 | [9] -0.185 | [10] -0.007

TET1 (UniProt Q8NFU7)
inactive: [1] -0.011 | [2] -0.238 | [3] -0.157 | [4] -0.342 | [5] 0.101 | [6] -0.031 | [7] -0.173 | [8] 0.285 | [9] -0.037 | [10] -0.059

TECR (UniProt Q9NZ01)
inactive: [1] -0.003 | [2] 0.037 | [3] 0 | [4] -0.046 | [5] -0.003 | [6] 0.044 | [7] 0.041 | [8] -0.031 | [9] 0.06 | [10] 0.025

TFE3 (UniProt P19532)
inactive: [1] 0.066 | [2] -0.074 | [3] 0.07 | [4] -0.022 | [5] 0.047 | [6] 0.013 | [7] 0.064 | [8] -0.111 | [9] -0.009 | [10] -0.047

TAF8 isoform 2 (UniProt Q7Z7C8)
inactive: [1] 0.012 | [2] 0.007 | [3] -0.031 | [4] -0.039 | [5] -0.119 | [6] 0.05 | [7] -0.062 | [8] -0.004 | [9] 0.046 | [10] -0.049

TBC1D14 (UniProt Q9P2M4)
inactive: [1] -0.077 | [2] -0.011 | [3] 0.064 | [4] 0.044 | [5] -0.119 | [6] 0.093 | [7] 0.171 | [8] 0.006 | [9] 0.017 | [10] -0.053

TFB1M (UniProt Q8WVM0)
inactive: [1] 0.014 | [2] 0.002 | [3] 0.041 | [4] -0.021 | [5] -0.016 | [6] 0.006 | [7] -0.02 | [8] -0.088 | [9] 0.019 | [10] -0.005

TBC1D4 (UniProt O60343)
inactive: [1] 0.03 | [2] 0.014 | [3] 0.021 | [4] 0.005 | [5] -0.036 | [6] 0.009 | [7] 0 | [8] -0.051 | [9] -0.006 | [10] 0.008

TBC1D2 (UniProt Q9BYX2)
inactive: [1] 0.06 | [2] 0 | [3] 0.084 | [4] -0.037 | [5] -0.004 | [6] -0.035 | [7] -0.029 | [8] 0.017 | [9] 0 | [10] -0.036

TFRC (UniProt P02786)
inactive: [1] -0.009 | [2] -0.006 | [3] -0.005 | [4] -0.01 | [5] 0.001 | [6] -0.009 | [7] 0 | [8] -0.006 | [9] -0.017 | [10] -0.01

TAF9 (UniProt Q16594)
inactive: [1] -0.028 | [2] 0.044 | [3] 0.033 | [4] -0.057 | [5] 0.032 | [6] 0.015 | [7] 0.019 | [8] 0.027 | [9] 0.101 | [10] -0.023

TANGO2 isoform 4 (UniProt Q6ICL3)
inactive: [1] 0.097 | [2] -0.027 | [3] 0.005 | [4] -0.028 | [5] -0.038 | [6] -0.062 | [7] -0.005 | [8] -0.015 | [9] -0.007 | [10] 0.003

TCOF1 isoform 4 (UniProt Q13428)
inactive: [1] 0.006 | [2] -0.017 | [3] -0.015 | [4] -0.018 | [5] -0.003 | [6] -0.018 | [7] -0.021 | [8] 0.026 | [9] 0 | [10] -0.014

TCERG1 (UniProt O14776)
inactive: [1] 0.013 | [2] 0.009 | [3] 0.018 | [4] -0.008 | [5] -0.004 | [6] 0.005 | [7] 0.039 | [8] -0.074 | [9] 0.009 | [10] 0.015

TCF3 (UniProt P15923)
inactive: [1] 0.001 | [2] 0.027 | [3] 0.014 | [4] -0.028 | [5] -0.005 | [6] -0.034 | [7] -0.074 | [8] -0.061 | [9] -0.045 | [10] -0.016

2 neighbouring records already listed, quoted:
TBC1D5 isoform 2 (UniProt Q92609)
inactive: [1] -0.023 | [2] -0.01 | [3] 0.019 | [4] 0.015 | [5] -0.026 | [6] 0.012 | [7] 0.004 | [8] 0.035 | [9] 0.004 | [10] -0.027

TCF12 isoform 3 (UniProt Q99081)
inactive: [1] 0.059 | [2] -0.029 | [3] -0.022 | [4] -0.054 | [5] 0.002 | [6] -0.008 | [7] 0.064 | [8] -0.008 | [9] 0.011 | [10] 0.109
